The target of test [1] is human Activin A Fc (human) (UniProt P08476). Briefly: summary of Tables 4 and 5 (SPR, Octet). Background: Biolayer interferometry detects binding as a change in optical thickness at a sensor tip.
The next test has as its target Activin B (UniProt P09529). As to the kind of experiment: BLI Octet; IgG, avid; binder with a poor fit to a 1:1 model.

Sequences of proteins named here, by UniProt entry; tags and fusion partners are left off. A change or cut given only in a name is not applied to a line headed by its entry. Residues count along the entry.
UniProt P08476: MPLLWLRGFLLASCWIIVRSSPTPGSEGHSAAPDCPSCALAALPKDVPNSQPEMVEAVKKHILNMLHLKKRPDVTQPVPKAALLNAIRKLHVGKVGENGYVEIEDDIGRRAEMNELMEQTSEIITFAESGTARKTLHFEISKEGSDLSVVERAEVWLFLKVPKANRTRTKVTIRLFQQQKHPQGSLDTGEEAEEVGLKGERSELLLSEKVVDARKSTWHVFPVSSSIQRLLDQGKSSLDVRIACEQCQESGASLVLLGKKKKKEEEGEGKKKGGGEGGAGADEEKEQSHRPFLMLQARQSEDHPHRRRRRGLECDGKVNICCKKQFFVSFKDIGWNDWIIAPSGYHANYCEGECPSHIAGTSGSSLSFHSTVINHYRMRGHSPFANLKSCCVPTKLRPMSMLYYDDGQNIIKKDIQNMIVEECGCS
UniProt P09529, residues 293-407: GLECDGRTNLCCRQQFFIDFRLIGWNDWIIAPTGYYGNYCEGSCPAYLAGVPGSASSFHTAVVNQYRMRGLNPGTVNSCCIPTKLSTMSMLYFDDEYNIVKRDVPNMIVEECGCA

Where a chain is given by its changes, count along the chain named. Results are given in words; binding and its absence hold for the method and conditions named. Some entries that bind do so weakly or less than the wild type.

B1: Antibody F (Clone F), IgG (antibody, V domains shown)
VH: QVQLVQSGAEVKKPGASVKVSCKASGYTFTGYHIHWVRQVPGQGLEWMGVISAYSGDTNYAQKLQGRVTMTTDTSTSTAYMELRSLRSDDTAVYYCARARDIAALGLGAFDYWGQGTLVTVSS
VL: EIVLTQSPATLSVSPGERATLSCRASQSVSSNLAWYQQKPGQAPRLLIYGASDRATGIPARFSGSGSGTEFTLTISSLQSEDFAVYYCIQYSNYPRTFGGGTKVEIKR
In the case of B1, the binding result in test [1] was “binds”.

B2: Antibody L (Clone L), IgG (antibody, V domains shown)
VH: QVQLQESGPGLVKPSETLSLTCAVSGYSISSGYYWGWIRQPPGKGLEWIGSIYHSGSTYYNPSLKSRVTISVDTSKNQFSLKLSSVTAADTAVYYCAREAGSGYWYLSVYGMDVWGQGTTVTVSS
VL: B1 VL with D53T, I89Q, Y91S, S92D, N93D, Y94W, R96W
In the case of B2, the binding result in test [1] is listed as “binds”.

B3: Antibody P (Clone P), IgG (antibody, V domains shown)
VH: QVQLVQSGAEVKKPGSSVKVSCKASGGTFDDYAISWVRQAPGQGLEWMGGIIPRFGIANYAQKFQGRVTITADESTSTAYMELSSLRSEDTAVYYCARPPSSGSDWGQGTLVTVSS
VL: DIQMTQSPSSVSASVGDRVTITCRASQGIDSWLAWYQQKPGKAPKLLIYAASSLQSGVPSRFSGSGSGTDFTLTISSLQPEDFATYYCQQVHSFPITFGGGTKVEIKR
For the molecule B3, the binding entry (in test [1]; with Activin B) was “binds” throughout.

The record behind these values is patent publication US20250109190A1.
